Laboratory results as given in patent US20220306753A1 (JN BIOSCIENCES, published 2022).
No constants are given. Whether binding was seen depends on the method and setting. Some results given as binding are weak or reduced against the parent protein; the word gives no strength. For some of these results: Tags and fused reporters may be left off the sequences shown.

T1: CD122-FLAG-GPI (human)
T1 sequence: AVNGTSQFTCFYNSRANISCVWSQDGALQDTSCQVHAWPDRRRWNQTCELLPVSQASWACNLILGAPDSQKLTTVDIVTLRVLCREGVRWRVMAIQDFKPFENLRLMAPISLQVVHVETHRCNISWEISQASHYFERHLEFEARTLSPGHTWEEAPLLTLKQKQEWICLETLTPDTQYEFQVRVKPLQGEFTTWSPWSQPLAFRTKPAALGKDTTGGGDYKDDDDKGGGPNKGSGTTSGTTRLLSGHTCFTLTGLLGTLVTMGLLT

T2: cynomolgus CD122 (cynomolgus) (UniProt Q38J85)
T2 sequence (looked up): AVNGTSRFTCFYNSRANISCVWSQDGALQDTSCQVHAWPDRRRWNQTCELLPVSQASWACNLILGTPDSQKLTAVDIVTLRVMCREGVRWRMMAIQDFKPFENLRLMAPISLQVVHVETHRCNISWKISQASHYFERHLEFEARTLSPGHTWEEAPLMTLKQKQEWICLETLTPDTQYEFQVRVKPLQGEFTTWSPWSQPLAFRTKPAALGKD

T3: human CD122 (human) (UniProt P14784)
T3 sequence: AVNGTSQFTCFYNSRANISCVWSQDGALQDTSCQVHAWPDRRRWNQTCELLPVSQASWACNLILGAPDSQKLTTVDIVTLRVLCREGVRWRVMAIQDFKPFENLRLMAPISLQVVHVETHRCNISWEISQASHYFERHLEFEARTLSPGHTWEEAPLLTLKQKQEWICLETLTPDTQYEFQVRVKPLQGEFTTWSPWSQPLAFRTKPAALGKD


Experiments:
CD122-FLAG-GPI (human) [1] = molecular target: T1, CD122-FLAG-GPI (human); test: flow cytometry on NS0/CD122 cells, 2.5 µg/ml and 4-fold dilutions, PE anti-human IgG
[2] = molecular target: T2, cynomolgus CD122 (cynomolgus); test: assay not described
human CD122 (human) = molecular target: T3, human CD122 (human); test: assay not described
CD122-FLAG-GPI (human) [3] = molecular target: T1, CD122-FLAG-GPI (human); test: flow cytometry on NS0/CD122 cells

Binder	binding (CD122-FLAG-GPI (human) [1])	binding [2]	binding (human CD122 (human))	binding (CD122-FLAG-GPI (human) [3])
HuABC2 (antibody, human IgG1, kappa, V domains shown, Human IgG1/kappa, wild-type Fc, expressed from pHuABC2p in CHO-K1 and purified on protein A; also called humanized anti-CD122 IgG1/kappa monoclonal antibody) VH: EVQLVESGGGLVQPGGSLRLSCAASGFTFSDFYMEWVRQAPGKGLEWIAASRNKANDYTTEYSASVKGRFIVSRDDSKNSLYLQMNSLKTEDTAVYYCARSYYRYDGMDYWGQGTTVTVSS VL: EIVLTQSPATLSLSPGERATLSCSAISSVSYMYWYQQKPGQAPRLLIYDTSNLVSGVPARFSGSGSGTDYTLTISSLEPEDFAVYYCQQWNTYPYTFGGGTKVEIKR	binds			
HuABC77D (antibody, human IgG1, kappa, L234A L235A, V domains shown) VH: EVQLVESGGGLVQPGGSLRLSCAASGFDFSRYWMSWVRQAPGKGLEWIGEINPDSSTINYAPSLKDRFTISRDNAKNSLYLQMNSLRAEDTAVYYCARHDYDEGIYFDYWGQGTTVTVSS VL: DIQMTQSPSSLSASVGDRVTITCSASSRVIYMHWYQQKPGKAPKRWIYDTSKLASGVPSRFSGSGSGTEFTLTISSLQPEDFATYYCQQWSSNPPTFGGGTKVEIKR		binds	binds	binds
